In PubChem BioAssay AID493014 (National Center for Advancing Translational Sciences (NCATS), 2011):
This is one part of the list. Further columns of the screen follow, without active or inactive calls. Compounds called inactive in the main read-out are mostly missing here. The note in brackets gives the kind of curve behind each potency; many fits are weak.

Test: qHTS Assay to Find Inhibitors of Chronic Active B-Cell Receptor Signaling
Conditions: ABC-DLBCL IkBa-CBG/CBR reporter, luminescence ratio (green luciferase fused to IkBa over red control in TMD8 lymphoma cells), 4 h
How it was run: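 Cell line TMD8 (human ABC DLBCL), stably expressing tet-inducible CBG68-IkBa fusion and CBR; IMDM/0.5% FBS; cpd up to 46 uM; dox induction, 4 h, 37C/5% CO2; dual luminescence; green/red ratio; MG132 control.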

[1] = measured here: CBR red luminescence, cell number
[2] = measured here: IkBa-CBG green luminescence

| Structure (SMILES) | AC50 [1] | AC50 [2] |
| --- | --- | --- |
| Cc1cc(-c2nc3ncccc3o2)ccc1NC(=S)NC(=O)C(C)C | 3.55 µM [rising, partial curve] |  |
| COc1ccccc1C(=O)Nc1nnc(CCc2ccccc2)s1 | 0.355 µM [rising, full curve, poor fit] |  |
| CC(=O)Nc1ccc(OCCOc2ccc([N+](=O)[O-])cc2)cc1 | 35.5 µM [rising, single point] |  |
| COc1ccc(S(=O)(=O)Nc2ccccc2C(=O)Nc2nc(-c3ccc(F)cc3)cs2)cc1OC | 29.1 µM [falling, single point] |  |
| CCOc1cccc(OCCOc2ccc(C(=O)c3ccccc3)cc2)c1 | 4.11 µM [rising, single point] |  |
| O=C1CN(CC(=O)N2CCCCC2)c2ccccc2O1 | 1.41 µM [falling, full curve] |  |
| COc1cccc(C(=O)Nc2cccc(NC(C)=O)c2)c1 | 4.47 µM [falling, partial curve, poor fit] |  |
| CCCCOc1ccc(N2CC(C(=O)NCCc3ccc(OC)c(OC)c3)CC2=O)cc1 (stereo not drawn) | 11.2 µM [rising, partial curve, poor fit] |  |
| Cc1ccc(C)c(OCc2ccc(C(=O)NN)o2)c1 | 2.24 µM [falling, full curve, poor fit] |  |
| Fc1ccc2cc(CCO[C@H]3CCCCO3)ncc2c1 | 7.31 µM [rising, partial curve] |  |
| Cc1ccc(-n2cc(C(=O)c3ccc(F)cc3)nn2)cc1Cl | 0.794 µM [rising, full curve] |  |
| CCC(c1nc2ccccc2c(=O)n1-c1nc2ccccc2s1)N1C(=O)c2ccccc2C1=O (stereo not drawn) | 16.4 µM [rising, partial curve, poor fit] |  |
| Cc1ccsc1S(=O)(=O)N1CCCC(CCC(=O)NCc2ccccc2F)C1 (stereo not drawn) | 12.6 µM [rising, partial curve, poor fit] |  |
| Cc1ccc(NC(=O)c2nc[nH]c2C(=O)NCC(=O)OC(C)(C)C)cc1 |  | 0.708 µM [rising, full curve, poor fit] |
| Cc1[nH]c(=O)[nH]c(=O)c1NC(=O)CSc1ncccc1-c1nc2ccccc2[nH]1 | 11.2 µM [falling, partial curve] |  |
| NC(=O)c1ccc(NC(=O)COC(=O)CCCN2C(=O)c3cccc4cccc(c34)C2=O)cc1 | 1.84 µM [rising, full curve, poor fit] |  |
| Nc1ccc(-c2nc3ccc(C(=O)O)cc3s2)cc1 | 0.13 µM [falling, full curve] | 20.6 µM [rising, partial curve, poor fit] |
| CC1CCc2c(sc(NC(=O)c3ccc(Cn4cc([N+](=O)[O-])cn4)o3)c2C#N)C1 (stereo not drawn) | 10 µM [falling, partial curve, poor fit] |  |
| COc1cccc(C(=O)Nc2c(C)n[nH]c2C)c1 | 16.4 µM [rising, single point] |  |
| O=C(Nc1nc2c(F)cc(F)cc2s1)c1ccc2c(c1)OCCO2 | 3.66 µM [falling, partial curve, poor fit] |  |
| O=C(CSc1ccc(F)cc1)Nc1ccc(N2CCOCC2)cc1 | 12.6 µM [rising, single point] |  |

| Structure (SMILES) | AC50 [1] | AC50 [2] |
| --- | --- | --- |
| Cc1ccccc1-c1nnn(CC(=O)NCc2ccc3c(c2)OCO3)n1 | 2.82 µM [falling, full curve] |  |
| N/C(=N\c1nc2ccccc2o1)NC(=O)c1ccc(F)cc1 | 4.47 µM [falling, full curve] |  |
| CCN1CCC(Nc2ccnc3cc(Cl)ccc23)CC1 | 11.2 µM [falling, partial curve, poor fit] |  |
| CC(C)CCC1(C)NC(=O)N(CC(=O)NCC(=O)Nc2ccc(F)c(F)c2F)C1=O (stereo not drawn) | 0.184 µM [rising, full curve, poor fit] |  |
| Cn1c(=O)n(CC(=O)Nc2ccc(F)cc2)c2ccccc21 | 18.4 µM [rising, single point] |  |
| O=C(O)c1ccc(N=NN2CCCC2)cc1 | 6.31 µM [falling, partial curve] |  |
| N/C(=N\OC(=O)Cc1cccs1)c1cccc([N+](=O)[O-])c1 | 25.9 µM [rising, partial curve, poor fit] |  |
| CCCC1c2ccsc2CCN1C(=S)NC (stereo not drawn) | 10 µM [rising, partial curve, poor fit] |  |
| COC(=O)c1ccc(-c2ccc(OC)c([C@H]3[C@H]4C=CC[C@@H](C)[C@@H]4C(=O)N3Cc3ccccc3)c2)cc1 | 35.5 µM [rising, single point] |  |
| O=C(c1ccc(CS(=O)c2ccccc2Cl)o1)N1CCN(c2ccccc2)CC1 (stereo not drawn) | 15.8 µM [rising, partial curve, poor fit] | 15.8 µM [falling, partial curve] |
| O=C(Nc1ccc(-c2nc3ccccc3s2)c(O)c1)C1=COCCO1 | 0.206 µM [rising, full curve, poor fit] |  |
| Cc1cc(-c2ccc(C)c(S(=O)(=O)NC(C)Cc3ccco3)c2)on1 (stereo not drawn) | 25.1 µM [falling, single point] |  |
| CCN(CC)S(=O)(=O)c1cccc(NC(=O)C(=O)c2c(-c3ccccc3)cc3ccccn23)c1 | 6.51 µM [falling, single point] |  |
| COc1ccc(-n2ccc3ccccc32)cc1 | 2.24 µM [rising, partial curve, poor fit] |  |
| O=C(NC(=S)Nc1ccc2c(c1)OCCO2)c1ccccc1F | 17.8 µM [falling, single point] |  |
| COc1ccccc1-c1ccc(=O)n(CC(=O)NC2CCc3ccccc32)n1 (stereo not drawn) | 35.5 µM [falling, partial curve, poor fit] |  |
| CCN(C(=O)Cn1c(=O)oc2ccccc21)c1cccc(C)c1 | 2.51 µM [falling, partial curve] |  |
| COc1cccc(OC)c1NC(=O)c1nc2c(nnn2Cc2ccccc2Cl)c(=O)[nH]1 | 17.8 µM [rising, partial curve, poor fit] |  |
| CCc1cc(C(=O)NNC(=O)CCl)sc1C | 35.5 µM [falling, single point] |  |
| CCOc1ccc(C(=O)OCC(=O)Nc2ccc3c(c2)OCCO3)cc1OC | 0.731 µM [rising, partial curve, poor fit] |  |
| CNC(=O)Nc1cc(C)nn1C | 35.5 µM [rising, partial curve, poor fit] |  |

| Structure (SMILES) | AC50 [1] | AC50 [2] |
| --- | --- | --- |
| CS(=O)(=O)c1nc(-c2ccc(F)cc2)cc(C(F)(F)F)n1 | 5.62 µM [falling, full curve] | 7.08 µM [rising, full curve, poor fit] |
| CCOc1ccc(N=c2cc(-c3ccc(OC)cc3)oc3ccccc23)cc1 | 23.1 µM [rising, partial curve, poor fit] |  |
| O=c1c2ccccc2nnn1COc1ccc(Cl)cc1Br | 35.5 µM [rising, single point] |  |
| O=C(CC1CCCC1)NNC(=O)c1ccc(Br)cc1 | 29.1 µM [rising, single point] |  |
| CCCNC(=O)Cn1c(=O)/c(=C\c2ccc(-c3cccc([N+](=O)[O-])c3)o2)s/c1=C\C(=O)C(C)(C)C | 25.9 µM [rising, single point] |  |
| CCOc1ccc(NC(=S)N(CCc2ccncc2)C(C)C)cc1 | 35.5 µM [rising, single point] |  |
| COC(=O)c1[nH]c2ccc(C)cc2c1NC(=O)CN1CCN(c2ccccc2)CC1 | 0.92 µM [rising, full curve] | 2.31 µM [falling, partial curve, poor fit] |
| CC(C)N(Cc1ccccc1)CC(O)COc1ccc(S(=O)(=O)N2CCOCC2)cc1Cl (stereo not drawn) | 35.5 µM [falling, single point] |  |
| CCOC(=O)c1c(-c2ccc(C)o2)csc1NC(=S)NC(=O)c1cccs1 |  | 14.6 µM [rising, partial curve, poor fit] |
| Oc1cc2c(cc1O)[C@H]1c3ccc(O)c(O)c3OC[C@@]1(O)C2 | 14.6 µM [falling, single point] |  |
| O=C(N/N=C/c1cccs1)c1cc(-c2ccncc2)nc2ccccc12 | 18.4 µM [rising, partial curve] | 9.2 µM [falling, partial curve] |
| CC(OC(=O)c1cc(O)c2ccccc2c1O)C(=O)Nc1ccc(C(N)=O)cc1 (stereo not drawn) | 20.6 µM [falling, partial curve] |  |
| O=C(Nc1nc2ccc(Cl)cc2s1)c1ccco1 | 4.11 µM [falling, full curve] |  |
| O=C(NNC(=O)c1ccc([N+](=O)[O-])cc1)c1ccncc1 | 18.4 µM [falling, partial curve, poor fit] |  |
| Cc1ccc(NC(=O)NCc2ccccn2)cc1 | 35.5 µM [falling, single point] |  |
| Cc1cc(S(=O)(=O)n2cnc3cc([N+](=O)[O-])ccc32)ccc1Cl | 29.1 µM [falling, single point] |  |
| Cc1sc(C(C2C(=O)CC(C)(C)CC2=O)C2C(=O)CC(C)(C)CC2=O)cc1[N+](=O)[O-] | 35.5 µM [rising, single point] |  |
| Cc1cccc(CS(=O)(=O)c2cn(CC(=O)N3CCOCC3)c3ccccc23)c1 | 15.8 µM [falling, single point] |  |
| O=C(CSc1nnc(-c2cccs2)n1Cc1ccco1)Nc1ccc2c(c1)OCO2 | 11.2 µM [falling, partial curve, poor fit] |  |
| Cc1c(NS(=O)(=O)c2ccccc2)cc(Cl)c(O)c1C | 0.58 µM [falling, full curve] | 0.58 µM [rising, full curve, poor fit] |

Structures listed so far with bromine:

| Structure (SMILES) | AC50 [1] | AC50 [2] |
| --- | --- | --- |
| O=c1c2ccccc2nnn1COc1ccc(Cl)cc1Br | 35.5 µM [rising, single point] |  |
| O=C(CC1CCCC1)NNC(=O)c1ccc(Br)cc1 | 29.1 µM [rising, single point] |  |

Laid out differently: results already given
O=C(N/N=C/c1cccs1)c1cc(-c2ccncc2)nc2ccccc12
  AC50 [1]: 18.4 µM [rising, partial curve]
  AC50 [2]: 9.2 µM [falling, partial curve]
CC(OC(=O)c1cc(O)c2ccccc2c1O)C(=O)Nc1ccc(C(N)=O)cc1 (stereo not drawn)
  AC50 [1]: 20.6 µM [falling, partial curve]
O=C(Nc1nc2ccc(Cl)cc2s1)c1ccco1
  AC50 [1]: 4.11 µM [falling, full curve]
